# Results of single-concentration screens

By UniProt entry, the sequences of proteins in these tests, tags left out. Residues count along the entry.
UniProt A4I591, 1-473: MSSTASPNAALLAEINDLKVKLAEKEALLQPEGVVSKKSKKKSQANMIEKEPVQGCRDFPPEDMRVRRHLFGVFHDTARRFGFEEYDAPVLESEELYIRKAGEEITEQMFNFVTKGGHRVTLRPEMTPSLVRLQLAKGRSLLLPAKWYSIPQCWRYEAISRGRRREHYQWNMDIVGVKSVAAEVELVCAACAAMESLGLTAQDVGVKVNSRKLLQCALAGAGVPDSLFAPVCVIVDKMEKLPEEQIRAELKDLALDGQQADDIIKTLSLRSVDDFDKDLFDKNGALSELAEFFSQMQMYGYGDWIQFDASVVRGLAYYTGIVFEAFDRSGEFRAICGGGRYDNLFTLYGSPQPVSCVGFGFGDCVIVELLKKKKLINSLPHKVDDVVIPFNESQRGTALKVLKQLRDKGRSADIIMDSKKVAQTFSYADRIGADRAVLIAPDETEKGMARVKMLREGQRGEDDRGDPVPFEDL
UniProt Q4DA54, 1-478: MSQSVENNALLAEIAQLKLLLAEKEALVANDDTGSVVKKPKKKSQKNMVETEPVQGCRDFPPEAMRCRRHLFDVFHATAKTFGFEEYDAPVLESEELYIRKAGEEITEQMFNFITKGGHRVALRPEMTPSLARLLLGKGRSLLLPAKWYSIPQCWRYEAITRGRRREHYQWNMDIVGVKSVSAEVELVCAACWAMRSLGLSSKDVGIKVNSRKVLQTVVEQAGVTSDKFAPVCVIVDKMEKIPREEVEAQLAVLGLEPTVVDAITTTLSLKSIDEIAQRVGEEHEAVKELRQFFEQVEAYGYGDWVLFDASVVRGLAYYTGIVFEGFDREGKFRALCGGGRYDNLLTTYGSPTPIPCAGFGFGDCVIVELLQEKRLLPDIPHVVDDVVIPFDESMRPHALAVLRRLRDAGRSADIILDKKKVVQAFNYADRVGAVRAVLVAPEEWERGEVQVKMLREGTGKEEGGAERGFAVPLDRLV
UniProt Q8IDJ8, 1-583: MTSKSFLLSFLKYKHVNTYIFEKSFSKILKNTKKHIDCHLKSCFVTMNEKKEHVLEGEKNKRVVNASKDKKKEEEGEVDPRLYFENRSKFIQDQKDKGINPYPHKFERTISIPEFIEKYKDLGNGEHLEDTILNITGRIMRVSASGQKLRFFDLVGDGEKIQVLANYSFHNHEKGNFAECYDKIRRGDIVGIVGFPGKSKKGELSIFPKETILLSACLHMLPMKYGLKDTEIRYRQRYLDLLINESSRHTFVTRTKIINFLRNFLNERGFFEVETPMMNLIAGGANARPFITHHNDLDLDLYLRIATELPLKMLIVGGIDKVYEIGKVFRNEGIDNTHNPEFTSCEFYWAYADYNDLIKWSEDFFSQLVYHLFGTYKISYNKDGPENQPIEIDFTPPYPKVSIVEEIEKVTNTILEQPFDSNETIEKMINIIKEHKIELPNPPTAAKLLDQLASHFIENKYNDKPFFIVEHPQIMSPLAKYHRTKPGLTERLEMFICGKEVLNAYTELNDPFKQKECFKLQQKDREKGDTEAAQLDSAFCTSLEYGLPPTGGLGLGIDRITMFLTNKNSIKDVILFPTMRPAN

A: 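Histidine-tRNA ligase, Leishmania infantum (UniProt A4I591). Enzyme assay of histidyl-tRNA synthetase; the read-out is not stated. Concentration: 30 µM. Higher reads as stronger inhibition (inferred: compounds with an IC50 in retests scored well above the rest). The assay is labelled LdHisRS but filed under L. infantum. Of about 69,000 compounds tested this way, about 410 (0.6%) reached 50% or more in at least one test.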
B: 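Histidine-tRNA ligase, Trypanosoma cruzi CL Brener (UniProt Q4DA54). Enzyme assay of histidyl-tRNA synthetase; the read-out is not stated. Concentration: 30 µM. Direction is inferred from retests: higher values go with stronger inhibition. Of about 69,000 compounds tested this way, about 31 (0.045%) reached 50% or more in at least one test.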
C: 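Enzyme assay of the cytosolic lysyl-tRNA synthetase in 384-well plates, read by luminescence. Target: Lysine-tRNA ligase, Plasmodium falciparum 3D7 (UniProt Q8IDJ8). Concentration: 30 µM. Higher reads as stronger inhibition, judged from the few compounds that gave an IC50. Of about 69,000 compounds tested this way, about 49 (0.071%) reached 50% or more in at least one test.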
D: 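Cell assay of Leishmania donovani living inside macrophages; the read-out is not stated. Concentration: 30 µM. Higher reads as stronger inhibition (inferred: compounds with an IC50 in retests scored well above the rest). About 69,000 compounds were tested under these conditions; 1.5% (about 1,000) showed 50% or more at least once.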

Values are the deposited “Percent Effect”, in %.
How 0% and 100% were set is not recorded. Most values in the screen are low, and negative values occur.
The compounds are a random part of those screened.
Two or more numbers in one place are separate tests of the same structure; such repeats can differ widely.

N#Cc1cn(C2CC2)c(=O)n(CC(O)c2ccc(F)cc2)c1=O (stereo not drawn) gave A: 9.174%; B: 4.706%; C: 0.06671%; D: 10.51%.
COCC1CN(Cc2ccoc2)Cc2cn(CC3CCCC3)nc21 (stereo not drawn) gave A: 7.895%; B: 2.299%; C: -1.802%; D: 6.282%.
O=C1C(n2nnc(-c3cccs3)n2)CCN1CC(F)(F)F (stereo not drawn) gave A: 11.39%; B: 3.017%; C: 1.473%; D: 18.22%.
CCN(CC)C(=O)c1cnc(Sc2nccn2C)c(Cl)c1 gave A: 15.79%; B: 9.497%; C: 4.985%; D: 8.391%.
O=c1cc(CN2CCCC(CCc3c(F)cccc3F)C2)[nH]c(=O)[nH]1 (stereo not drawn) gave A: 21.15%; B: 4.167%; C: 4.672%; D: 26.58%.
c1cc(C2CCN(C3CCCCC3)C2)n[nH]1 (stereo not drawn) gave A: 5.755%; B: 4.981%; C: -0.1424%; D: 19.15%.
CS(=O)(=O)N1CC2(CCN(C(=O)c3ccncc3)CC2)c2ccccc21.O=C(O)C(F)(F)F gave D: -17.05%.
COc1ccsc1C(=O)NC1CCN(c2cccc(F)c2)CC1 gave A: 8.235%; B: 5.025%; C: 1.487%; D: -25.77%.
CC(C)c1ncc2c(n1)CN(Cc1nc3c(F)cccc3[nH]1)CC2 gave A: 29.29%; B: 13.55%; C: 5.449%; D: 43.22%.
O=C(c1cc(COc2ccc3c(c2)OCO3)[nH]n1)N1CC=CC1CO (stereo not drawn) gave A: 3.81%; B: 2.479%; C: -0.4688%; D: -22.31%.
COCCN1C(=O)[C@H]2CC[C@@H]1CN(Cc1nnc(-c3ccccc3)o1)C2 gave A: 14.29%; B: 8%; C: 3.674%.
CCc1nc(CN2CCN(C(=O)c3csc(C(C)C)n3)CC2)no1 gave A: 0.7937%; B: 3.529%; C: -5.593%; D: -31.87%.
CSCCCN1C[C@H](NC(=O)c2ccc(CO)cc2)[C@@H](C2CC2)C1 gave A: 8.197%; B: 6.438%; C: 0.2937%; D: 17.2%.
Cc1cnn(C(C)C(=O)NCC2CCN(c3cnn(C)c(=O)c3)CC2)c1 (stereo not drawn) gave A: 14.52%; B: 2.041%; C: 6.046%; D: 21.25%.
COc1ccccc1CN(Cc1cccnc1)CC1CCCO1 (stereo not drawn) gave A: 15.94%; B: 9.89%; C: 5.846%.
CCc1ccc(C(=O)O)cc1S(=O)(=O)N(C)c1cccc(C)c1 gave A: 11.97%; B: 0.5405%; C: 3.886%; D: 19.85%.
NC(=O)CCn1nnc(-c2cc3ccccc3o2)n1 gave A: 15.18%; B: 6.897%; C: 1.416%; D: 11.56%.
CCN(CC)CCNc1c(-c2ccccc2)c(=O)c1=O gave A: 13.7%; B: 7%; C: 1.202%; D: 12.13%.
CN(CCCOc1ccccc1)Cc1nccn1C gave A: 6.25%; B: 3.797%; C: -4.086%; D: 6.441%.
CNC(=O)c1cnc(/C=C/c2cc(OC)cc(OC)c2)s1 gave A: -1.923%; B: -6.952%; C: 4.01%; D: -19.85%.
O=C1N(Cc2ccc(F)c(F)c2)CCCC1(O)CNCc1ccccn1 (stereo not drawn) gave A: 20%; B: 13.9%; C: 2.513%; D: -0.2917%.
[H][C@@]12C[C@H](C(=O)N3CCOCC3)[C@@]([H])(CN(S(C)(=O)=O)C1)O2 gave D: -4.08%.
c1ccc(OCCSC2=NCCN2)cc1 gave A: -5.376%; B: 0.5236%; C: 1.969%; D: 9.375%.
Cc1nc(CN(C)C2CCN(Cc3ccc4c(c3)CCC4)C2)no1 (stereo not drawn) gave A: 20.35%; B: 9.621%; C: 0.05419%; D: 16.69%.
CN1CCN(Cc2cn3c(n2)CN(C2CCOCC2)CC3)CC1 gave A: 9.434%; B: 7.778%; C: 5.979%.
O=C(O)C(F)(F)F.O=C(O)C(F)(F)F.O=C(O)C(F)(F)F.[H][C@]12C[C@H](C(=O)NC)N(C(C)C)[C@@]1([H])CN(Cc1cccnc1OC)C2 gave D: 0.4065% and 15.44%.
Cc1cc(CN(C)C(=O)CN2CC3(CCNCC3)OC2=O)no1 gave A: 17.14%; B: 7.792%; C: -0.3736%; D: 21.35%.
CCC1CN(C(=O)c2cccc(OCc3cscn3)c2)CCO1 (stereo not drawn) gave A: 17.59%; B: 7.918%; C: 1.586%; D: 11.39%.
Cc1nc(CN(C)C2CCN(Cc3nnc(C4CC4)o3)C2)no1 (stereo not drawn) gave A: 13.68%; B: 7.123%; C: 0.9513%; D: 22.93%.
O=C(N1CCOCC1)N1CCOC[C@H](Oc2ccc(C(F)(F)F)cc2)C1 gave A: 36.49%; B: 15.22%; C: 1.992%; D: -1.363%.
Cc1cc(C(=O)N2CC[C@]3(C[C@@H](OCc4ccccn4)CO3)C2)c(C)o1 gave A: 14%; B: 13.73%; C: -0.5822%.
Cc1nc(NCCC23CCCN2CCC3)cc(C2CCCNC2)n1 (stereo not drawn) gave A: 12.86%; B: 5.319%; C: 2.644%; D: 17.6%.

For reference, 3 entries once more:

For CSCCCN1C[C@H](NC(=O)c2ccc(CO)cc2)[C@@H](C2CC2)C1 the result was A: 8.197%; B: 6.438%; C: 0.2937%; D: 17.2%.
For COc1ccsc1C(=O)NC1CCN(c2cccc(F)c2)CC1 the result was A: 8.235%; B: 5.025%; C: 1.487%; D: -25.77%.
For O=C1C(n2nnc(-c3cccs3)n2)CCN1CC(F)(F)F (stereo not drawn) the result was A: 11.39%; B: 3.017%; C: 1.473%; D: 18.22%.

Data taken from ChEMBL document CHEMBL3988442, “University of Dundee, Small-Polar-MMV Screening Library” (2021).